The full ranking holds about 3,200 compounds; the median of “TSA(with NAD+) / Primary screening (TSA) / delta Tm (K)” is about -0.04, and the highest 2% start at about 0.37. The list shows a part of the results.
Target: NAD-dependent deacetylase Sirtuin 1 (human, UniProt Q96EB6)
Assay: primary screen, delta tm
Set-up: single well (n = 1, as 'the same TSA')
Details: 10 µM

Amino acid sequences for entries named in this document (tags omitted). Residues count along the entry.
UniProt Q96EB6, 2-747 limits assumed: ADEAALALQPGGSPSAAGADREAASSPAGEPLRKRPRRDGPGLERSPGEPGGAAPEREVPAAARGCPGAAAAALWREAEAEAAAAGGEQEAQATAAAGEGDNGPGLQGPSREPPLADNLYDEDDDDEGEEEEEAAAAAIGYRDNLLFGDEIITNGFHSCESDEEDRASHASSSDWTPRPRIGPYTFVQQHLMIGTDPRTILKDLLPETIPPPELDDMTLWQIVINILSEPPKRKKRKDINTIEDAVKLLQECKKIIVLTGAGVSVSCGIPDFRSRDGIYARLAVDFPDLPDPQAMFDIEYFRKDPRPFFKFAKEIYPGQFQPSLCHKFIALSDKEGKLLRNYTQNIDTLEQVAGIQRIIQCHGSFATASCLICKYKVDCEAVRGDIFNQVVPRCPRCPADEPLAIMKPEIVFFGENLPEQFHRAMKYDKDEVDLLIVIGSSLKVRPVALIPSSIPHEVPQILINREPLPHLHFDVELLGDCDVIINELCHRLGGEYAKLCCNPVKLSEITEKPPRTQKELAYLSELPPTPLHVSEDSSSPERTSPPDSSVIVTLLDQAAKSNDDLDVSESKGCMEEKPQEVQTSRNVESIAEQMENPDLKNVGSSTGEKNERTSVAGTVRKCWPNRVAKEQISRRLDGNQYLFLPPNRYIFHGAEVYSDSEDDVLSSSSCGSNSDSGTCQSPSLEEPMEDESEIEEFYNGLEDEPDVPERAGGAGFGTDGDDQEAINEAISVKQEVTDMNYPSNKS

Compound	TSA(with NAD+) / Primary screening (TSA) / delta Tm (K)
O=C(COC(=O)C1=COCCO1)Nc1cccc2c1C(=O)c1ccccc1C2=O	0.01 K
NC(=O)C1CCN(c2nc(CN3CCCCC3)nc3sc4c(c23)CCC4)CC1	-0.19 K
O=C(CCn1ccc2ccccc21)NCC(c1ccccc1)N1CCCC1 (stereo not shown)	-0.19 K
COc1ccc(NC(=O)c2ccc(NC(=O)COC(=O)C34CC5CC(CC(Br)(C5)C3)C4)cc2)cc1	0.73 K
O=C1Nc2ccccc2/C1=C\c1cn(CCOc2ccccc2)c2ccc(Br)cc12	0.13 K
c1ccc(CNc2ncnc3ccsc23)cc1	0.02 K
O=C(NC(c1ccccc1)c1ccc2[nH]cnc2c1)C1=COCCO1 (stereo not shown)	0.18 K
CC(OC(=O)c1ccc(C(N)=O)cc1)C(=O)N1CCCc2ccccc21 (stereo not shown)	-0.11 K
O=C(Nc1ccccc1)C1CCCN1C(=O)Cn1c(SC(F)F)nc2ccccc21 (stereo not shown)	-0.11 K
C=CCOc1ccc(C(=O)C2=C(O)C(=O)N(CCCN3CCOCC3)C2c2ccco2)cc1 (stereo not shown)	0.07 K
O=C(OCC(=O)C12CC3CC(CC(C3)C1)C2)c1ccc2c(c1)C(=O)N(Cc1ccco1)C2=O	0.09 K
Cc1cc2occ(CC(=O)N3CCN(S(=O)(=O)c4cc(C(N)=O)n(C)c4)CC3)c2cc1C(C)C	-0.09 K
O=C(NCCCc1nc2ccccc2[nH]1)C(=O)Nc1cccnc1	0.01 K
NC(=O)c1cc(C2CCCN(c3nccc(-n4cccn4)n3)C2)n[nH]1 (stereo not shown)	0.05 K
CC(C(=O)Nc1ccc(C(N)=O)cc1)N1CCN(c2ccc(O)cc2)CC1 (stereo not shown)	-0.06 K
NC(=O)c1ccc(NC(=O)CNc2cc(Cl)ccc2N2CCOCC2)cc1	0.03 K
O=c1oc2ccc3ccccc3c2cc1-c1csc(-c2nc(-c3ccc(Br)cc3)cs2)n1	-0.18 K
CCOC(CNS(=O)(=O)c1ccc(C(N)=O)cc1)(OCC)c1ccccn1	-0.01 K
O=C(Cc1ccc(OCc2cccc3cccnc23)cc1)NCCO	-0.11 K
Cc1nn(CC(=O)N2CCC(N3CCCC3C(N)=O)CC2)cc1-c1ccccc1 (stereo not shown)	-0.06 K
C=C(Br)CN	0.06 K
O=C(Nc1ccc2c3c(cccc13)CC2)c1cnc2sccn2c1=O	0.28 K
C=CC(C)N (stereo not shown)	-0.01 K

Compound	TSA(with NAD+) / Primary screening (TSA) / delta Tm (K)
Cn1ccc(NC(=O)C(Cc2c[nH]c3ccccc23)NC(=O)c2cccs2)n1 (stereo not shown)	-0.23 K
CC(C)(C)c1noc(CCCC(=O)Nc2cc(C(N)=O)ccc2N2CCCC2)n1	-0.21 K
O=c1[nH]c2ccccc2cc1CSc1nccn1Cc1ccccn1	-0.02 K
CC(C)c1ccc(/C=C2/CS(=O)(=O)c3ccccc3C2=O)cc1[N+](=O)[O-]	-0.61 K
CCN(C(=O)c1cc(C)cc(Br)c1)c1ccncc1	-0.23 K
O=C(Nc1ccc2nc(N3CCOCC3)sc2c1)C1=COCCO1	-0.01 K
CNC(=O)c1ccc(Cl)cc1NC(=O)C1CC(=O)N(c2ccc3c(c2)OCO3)C1 (stereo not shown)	-0.04 K
O=C(CCc1ccc(Cl)cc1)N1CCN(c2ccnc3cc(Cl)ccc23)CC1	0.02 K
Cn1cc(CSc2cccc(F)c2)cn1	-0.23 K
Cc1cccc2c(=O)n(CC(=O)N(C)c3ccc4ccccc4c3)cnc12	0.06 K
Cc1cc(C(=O)Nc2cc(C(N)=O)ccc2N2CCCCC2)c2ccccc2n1	-0.16 K
Cc1nn(-c2ccccc2)c(Cl)c1CN1CCN(c2ncnc3c2cnn3C)CC1	-0.18 K
Fc1cc(CSc2nnc(NCC3CCCO3)s2)c2ncccc2c1 (stereo not shown)	-0.04 K
CC1CCCN(CCN2CCN(c3ccc(F)cc3)CC2)C1 (stereo not shown)	-0.28 K
Cc1ccc(C(=O)NCC(=O)OC(C)C(=O)Nc2ccc(C(N)=O)cc2)cc1 (stereo not shown)	-0.12 K
Cc1ccc(N(C)S(=O)(=O)c2cccc(C(=O)NNC(=O)C(C)Oc3ccc(C#N)cc3)c2)cc1 (stereo not shown)	0.09 K
CCN(Cc1ccco1)C(=O)Cc1sc(S)nc1C	-0.05 K
O=C(O)c1cncnc1/C=C/c1ccc2ccccc2c1	-0.18 K
CCCCCCCCNC(=O)/C(C#N)=C/c1c[nH]c2ccccc12	0.43 K
Cc1nn(C)c(C)c1Nc1ncnc2ccsc12	-0.24 K
CC(CCc1ccc(O)cc1)NC(=O)C(C)SCc1nc2scc(-c3ccccc3)c2c(=O)[nH]1 (stereo not shown)	0.03 K
Cc1sc2nc(CSc3ccccc3)nc(N3CCCC(C(N)=O)C3)c2c1C (stereo not shown)	-0.18 K
O=c1oc2ccc3ccccc3c2cc1-c1nc(-c2ccc(Br)cc2)cs1	-0.11 K

Source: PMC6925144, “A prospective compound screening contest identified broader inhibitors for Sirtuin 1” (Scientific Reports, 2019)
